# Assay results from PubChem BioAssay AID445 (National Center for Advancing Translational Sciences (NCATS), 2006).
# The list shows a part of the results. The main result of the screen is listed elsewhere. These columns were measured beside it and carry no call. Most of these compounds were active or inconclusive in the main read-out, so they are no random draw. Potencies come from curve fits of mixed quality, noted in brackets.
# Experiment: IkB Signaling
# Conditions: ABC-DLBCL IkBa-CBG/CBR dual luciferase ratio (green luciferase fused to IkBa over red control in OCI-Ly3 lymphoma cells), 4 h
# Outline: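 Curves were fitted separately to fusion (green), unfused (red) and ratio luminescence, then classed by r2, magnitude and activity. Cells: OCI-Ly3, 4 h compound plus doxycycline at 37C; 10 uM MG-132 defined full response.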
# [1] = measured here: control luc red channel unless noted
# [2] = measured here: IkB-luc green channel
# [3] = measured here: control luc red channel
smiles,measurement,setting,value
Cc1nc2cc(-c3ccccc3)nn2c(C)c1CCC(=O)Nc1ccc(F)cc1F,AC50,[1],"5.01 µM [falling, partial curve]"
CCOC(=O)c1c(NC(=O)COc2ccc(Cl)cc2C)sc2c1CCCCC2,AC50,[1],"12.6 µM [falling, partial curve]"
Cc1ccc(CNC(=O)CS(=O)(=O)c2cccc3nsnc23)cc1,AC50,[1],"1.58 µM [rising, full curve, poor fit]"
COCCn1c(=O)[nH]c2cc(C(=O)N3CCN(c4ccccc4)CC3)ccc2c1=O,AC50,[1],"10 µM [falling, partial curve]"
COc1ccc(-n2nnnc2C2CCN(S(=O)(=O)c3ccc(C)cc3)CC2)cc1,AC50,[1],"12.6 µM [falling, partial curve]"
O=C(CSc1nc(-c2ccco2)cc(C(F)(F)F)n1)N1CCN(Cc2ccccc2)CC1,AC50,[2],"10 µM [falling, partial curve]"
same,AC50,[3],"10 µM [falling, partial curve]"
CCOc1ccc(CNC(=O)c2nn(-c3ccc(OC)cc3)c(=O)c3c2c2ccccc2n3C)cc1,AC50,[1],"0.398 µM [rising, full curve, poor fit]"
Cc1ccc(-c2ccc(CCC(=O)O)n2-c2ccc(C(N)=O)cc2)cc1,AC50,[1],"25.1 µM [falling, single point]"
Nc1nnc(-c2cc3ccccc3oc2=O)s1,AC50,[1],"20 µM [falling, partial curve]"
CC1=Nc2cc(C(=O)N3CCC(C)CC3)ccc2Sc2ccc(Cl)cc21,AC50,[1],"31.6 µM [falling, partial curve]"
COc1ccc(-c2n[nH]c3c2cnc2ccc(F)cc23)cc1,AC50,[1],"0.1 µM [rising, full curve]"
CCCSc1nc(-c2ccccc2)[nH]c1S(=O)(=O)c1ccc(C)cc1,AC50,[1],"25.1 µM [falling, partial curve]"
Cc1ccc(-c2c(C(=O)NCCc3ccccc3)oc(=O)c3ccccc23)cc1,AC50,[1],"25.1 µM [falling, single point]"
COc1ccccc1NC(=O)c1cnc(SCC(=O)N2CCOCC2)n(C)c1=O,AC50,[2],"31.6 µM [rising, single point]"
same,AC50,[3],"6.31 µM [falling, single point]"
CCOC(=O)C1CCCN(CC(=O)Nc2cc(C)c3c(=O)oc4ccccc4c3n2)C1 (configuration not stated),AC50,[1],"15.8 µM [falling, partial curve]"
Cc1ccccc1NC(=O)c1nc[nH]c1C(=O)NCc1ccccc1,AC50,[2],"39.8 µM [rising, single point]"
same,AC50,[3],"25.1 µM [falling, single point]"
Cc1ccc(CNC(=O)CN2C(=O)C3(SCC(=O)N3c3ccc(F)cc3)c3ccccc32)cc1 (configuration not stated),AC50,[1],"20 µM [falling, single point]"
COc1ccc2c(c1)Cc1sc(NC(=O)c3cccc(Br)c3)nc1-2,AC50,[1],"12.6 µM [falling, partial curve]"
COC(=O)COc1ccc(S(=O)(=O)N2CCN(c3ccccc3F)CC2)cc1,AC50,[1],"15.8 µM [falling, partial curve]"
COc1ccc(OC)c(C(=O)CSc2nnc(Cc3cccs3)n2C)c1,AC50,[1],"39.8 µM [rising, single point] [measured here: IkB-luc green channel]"
CCCCCn1c(CCNC(=O)c2cccc(C)c2)nc2ccccc21,AC50,[1],"15.8 µM [falling, partial curve]"
Cc1ccc(S(=O)(=O)c2cn(CC(=O)Nc3cccc(C)c3)c3cc4c(cc3c2=O)OCO4)cc1,AC50,[1],"25.1 µM [falling, single point]"
CC1CCC(C(=O)NC(C(=O)OCC(=O)c2ccc(Br)cc2)C(C)C)CC1 (configuration not stated),AC50,[1],"3.16 µM [falling, full curve]"
Cc1ccccc1/C=C(\C#N)c1nc(-c2ccc(Cl)cc2)cs1,AC50,[1],"2.51 µM [rising, full curve]"
Cc1csc2nc(-c3ccc(NS(=O)(=O)c4cc(F)ccc4F)cc3)cn12,AC50,[1],"25.1 µM [falling, partial curve]"
COc1ccc(CCN2C(=O)CN(C3CCCCCC3)C(=O)C2c2ccc(OC(C)C)c(OC)c2)cc1OC (configuration not stated),AC50,[1],"39.8 µM [falling, single point]"
CN(C(=O)c1ccc2c(Cl)c3c(nc2c1)CCC3)c1ccccc1F,AC50,[1],"31.6 µM [falling, partial curve]"
Cc1ccc(-c2nn3c(C)nnc3c3ccccc23)cc1S(=O)(=O)NCc1ccco1,AC50,[1],"5.01 µM [rising, full curve, poor fit] [measured here: IkB-luc green channel]"
Cc1c(C(=O)OCC(=O)c2c(N)n(CC(C)C)c(=O)n(C)c2=O)oc2ccccc12,AC50,[1],"7.94 µM [falling, partial curve]"
CC(=O)n1c2ccccc2c2c(C#N)c(N3CCCCC3)sc21,AC50,[1],"1.58 µM [rising, partial curve]"
COc1cccc(-c2cn3ncsc3n2)c1,AC50,[1],"0.251 µM [rising, full curve]"
Cc1cccc(NC(=O)c2cc(S(=O)(=O)N3CCCCCC3)cn2C)c1C,AC50,[1],"25.1 µM [falling, single point]"
COc1ccc(C2=NOC(C(=O)Nc3cc(Br)ccc3O)C2)cc1OC (configuration not stated),AC50,[1],"15.8 µM [falling, partial curve]"
CCc1ccc(CNC(=O)C2CCCN(S(=O)(=O)c3ccc4c(ccn4C)c3)C2)cc1 (configuration not stated),AC50,[1],"2.51 µM [falling, partial curve]"
CCOC(=O)N1CCC(NC(=O)c2cc(-c3ccc(F)cc3)[nH]c2C)CC1,AC50,[1],"15.8 µM [falling, partial curve]"
Cc1cc(C)c2c(n1)sc1c(=O)n(-c3ccccc3C(F)(F)F)nnc12,AC50,[1],"1.58 µM [rising, full curve]"
COCCOC(=O)c1[nH]c2c(c1C)C(=O)CC(c1ccco1)C2 (configuration not stated),AC50,[2],"3.16 µM [rising, partial curve]"
same,AC50,[3],"1.26 µM [rising, full curve, poor fit]"
CCSc1nc2c([nH]c3ccccc32)c(=O)n1-c1ccc(F)cc1,AC50,[1],"15.8 µM [rising, partial curve, poor fit]"

# Some of the entries so far, bar-delimited.
smiles | measurement | setting | value
Cc1ccccc1NC(=O)c1nc[nH]c1C(=O)NCc1ccccc1 | AC50 | [2] | 39.8 µM [rising, single point]
same | AC50 | [3] | 25.1 µM [falling, single point]
Cc1ccc(CNC(=O)CN2C(=O)C3(SCC(=O)N3c3ccc(F)cc3)c3ccccc32)cc1 (configuration not stated) | AC50 | [1] | 20 µM [falling, single point]
COc1ccc2c(c1)Cc1sc(NC(=O)c3cccc(Br)c3)nc1-2 | AC50 | [1] | 12.6 µM [falling, partial curve]
COC(=O)COc1ccc(S(=O)(=O)N2CCN(c3ccccc3F)CC2)cc1 | AC50 | [1] | 15.8 µM [falling, partial curve]
COc1ccc(OC)c(C(=O)CSc2nnc(Cc3cccs3)n2C)c1 | AC50 | [1] | 39.8 µM [rising, single point] [measured here: IkB-luc green channel]
CCCCCn1c(CCNC(=O)c2cccc(C)c2)nc2ccccc21 | AC50 | [1] | 15.8 µM [falling, partial curve]
Cc1ccc(S(=O)(=O)c2cn(CC(=O)Nc3cccc(C)c3)c3cc4c(cc3c2=O)OCO4)cc1 | AC50 | [1] | 25.1 µM [falling, single point]
CC1CCC(C(=O)NC(C(=O)OCC(=O)c2ccc(Br)cc2)C(C)C)CC1 (configuration not stated) | AC50 | [1] | 3.16 µM [falling, full curve]
